This assay concerns the target T1, HA-tagged Sec18 (pYK175, 3×Flag N-terminal tag, HA C-terminal tag) (S. cerevisiae) (UniProt P18759).
T1 sequence: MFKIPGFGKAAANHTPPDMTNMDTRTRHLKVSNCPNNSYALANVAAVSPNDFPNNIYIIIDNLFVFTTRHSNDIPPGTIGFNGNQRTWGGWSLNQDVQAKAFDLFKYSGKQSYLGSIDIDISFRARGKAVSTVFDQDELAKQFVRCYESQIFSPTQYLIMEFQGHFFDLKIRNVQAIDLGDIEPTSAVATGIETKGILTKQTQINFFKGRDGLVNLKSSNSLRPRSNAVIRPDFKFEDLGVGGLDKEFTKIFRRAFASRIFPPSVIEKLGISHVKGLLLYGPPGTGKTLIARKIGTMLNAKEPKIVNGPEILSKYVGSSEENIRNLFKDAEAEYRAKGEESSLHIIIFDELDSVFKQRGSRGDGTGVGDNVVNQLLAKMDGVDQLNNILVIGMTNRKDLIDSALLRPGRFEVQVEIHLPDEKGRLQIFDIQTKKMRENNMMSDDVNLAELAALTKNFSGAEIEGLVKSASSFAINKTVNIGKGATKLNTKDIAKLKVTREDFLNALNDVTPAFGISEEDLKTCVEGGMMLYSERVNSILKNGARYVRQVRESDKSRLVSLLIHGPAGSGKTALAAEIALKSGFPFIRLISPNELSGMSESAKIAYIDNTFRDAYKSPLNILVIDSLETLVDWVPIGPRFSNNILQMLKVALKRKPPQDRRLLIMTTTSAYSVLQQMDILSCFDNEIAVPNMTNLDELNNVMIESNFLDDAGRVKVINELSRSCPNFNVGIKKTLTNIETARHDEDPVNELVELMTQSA
The assay can be described thus: cross-linking; in vivo XL-MS: spheroplasts of S. cerevisiae S288C expressing tagged Sec18 treated with DSG (5 mM) for 30 min, lysis, magnetic bead anti-HA co-IP, SDS-PAGE bands of crosslinked Sec18 excised, LC-MS/MS; crosslinks graded high, medium or low confidence.

Results are given in words; binding and its absence hold for the method and conditions named. In cells and extracts the contact can be indirect. Some results given as binding are weak or reduced against the parent protein; the word gives no strength. Sequences can lack the tags named with a protein.

B1: GOS1 (endogenous) (protein, UniProt P38736 1-223)
chain: MSSQPSFVTIRGKAISLETQTESLLSKYSTFAQTTSSEQTGQEKKIDKQLEGILGQRQDVIDSLTQICDSNPAISASKLSQLHRHKEILQDHWKSFRNIRSSIQQERNRLNLLFSVKNDIANSTTDAPAPIGDADEYIQNETRRIDQSNNVVDRLISQAWETRSQFHSQSNVLNTANNKVLQTLQRIPGVNQLIMKINTRRKKNAFVLATITTLCILFLFFTW
As for B1, the binding result is on record as “binds”.

B2: HA-tagged Sec18 (pYK175, 3×Flag N-terminal tag, HA C-terminal tag) (enzyme, UniProt P18759 1-758)
chain: T1 sequence
Regarding B2, the binding result was “binds”.

The values are drawn from PMC12440825.
